Experimental data as given in US20260007697A1 (FUNDACI N PARA LA INVESTIGACI N M DICA APLICADA, published 2026).
No constants are given. Whether binding was seen depends on the method and setting.

Biological target: OVA
Test: ELISA, plate coated with OVA as control, detection with scFv F8

B1: anti-EDA F8 scFv (purified recombinant antibody fragment) (scFv)
scFv: EVQLLESGGGLVQPGGSLRLSCAASGFTFSVMKMSWVRQAPGKGLEWVSAISGSGGSTYYADSVKGRFTISRDNSKNTLYLQMNSLRAEDTAVYYCAKSTHLYLFDYWGQGTLVTVSSGGGGSGGGGSGGGGSGGGGSEIVLTQSPGTLSLSPGERATLSCRASQSVSNAFLAWYQQKPGQAPRLLIYGASSRATGIPDRFSGSGSGTDFTLTISRLEPEDFAVYYCQQMRGRPPTFGQGTKVEIKHHHHHH
notes: Expressed in E. coli BL21(DE3) from pET20b and purified on protein A Sepharose; also called scFv F8; scFv (F8)
- binding: no binding (tested: coating concentration not printed)
